The values below come from patent EP4638411B1, “PLASTICIZER” (priority 2022, dated 2024).

Series [1] in a line: Cold crack temperature of plasticized PVC films (based on draft DIN 53372). The note with it: PVC film, 60 phr plasticizer.
Series [2] in a line: Film volatility of plasticized PVC films (weight loss, 130 °C, 24 h). The note with it: 60 phr plasticizer.
The nature of series [3]: Compatibility (permanence) test of plasticized PVC films, 70 °C, 100% rel. humidity, gravimetric and visual. Details: key: 0: trockener Griff, die Folie ist glatt und trocken (beste Verträglichkeit); 1: stumpfer Griff, die Folie ist noch trocken, eine geringe Weichmachermenge befindet sich auf der Oberfläche und ergibt einen stumpfen Griff. Fingerspuren sind sichtbar; 2: klebriger Griff, es ist schon merklich Weichmacher an der Oberfläche ausgetreten, Fingerspuren sind leicht und deutlich zu erkennen; 3: schwacher, trockener Belag; mit bloßem Auge erkennbar; 4: schwacher, flüssiger oder schmieriger Belag; 5: starker trockener Belag; 6: starker schmieriger Belag. The note with it: 100% rel. Feuchtigkeit.

In turn, “4-Oxoheptandisäure-di-isotridecylester [Verbindung I.6]” showed a Kältebruchtemperatur in series [1] of -48 °C. Further, in series [2], the Folienflüchtigkeit was 0,67%. For the same compound, the “Visuelle Beurteilung” value in series [3] (Nach 1 Tag), in series [3] (Nach 3 Tagen), in series [3] (Nach 7 Tagen), in series [3] (Nach 14 Tagen) and in series [3] (Nach 28 Tagen) was 6 in each case.
Compound `CCCCC(CC)COC(=O)CCC(=O)CCC(=O)OCC(CC)CCCC` (stereo not drawn) [4-Oxoheptandisäure-di-(2-ethylhexylester), reference compound] gave a Kältebruchtemperatur in series [1] of -45 °C. For the same compound, the Folienflüchtigkeit in series [2] is listed as 2,4%. For the same compound, the “Visuelle Beurteilung” value in series [3] (Nach 3 Tagen) is given as 1.
Compound `CCCCCC(CCC)COC(=O)CCC(=O)CCC(=O)OCC(CCC)CCCCC` (stereo not drawn) [Verbindung I.1, 4-Oxoheptandisäure-di-(2-propylheptylester)] yielded a Kältebruchtemperatur in series [1] of -43 °C. Besides, the Folienflüchtigkeit in series [2] is listed as 0,77%. For the same compound, the “Visuelle Beurteilung” value in series [3] (Nach 1 Tag) is recorded as 2; in series [3] (Nach 3 Tagen), 2; in series [3] (Nach 7 Tagen), 2; in series [3] (Nach 14 Tagen) it was 2; in series [3] (Nach 28 Tagen), 4.
`CC(C)CCCC(C)CCOC(=O)CCC(=O)CCC(=O)OCCC(C)CCCC(C)C` (stereo not drawn) [Verbindung I.2, 4-Oxoheptandisäure-di-(3,7-dimethyloctylester)] yielded a Kältebruchtemperatur in series [1] of -43 °C. The Folienflüchtigkeit in series [2] was 0,93%. Besides, the “Visuelle Beurteilung” value in series [3] (Nach 1 Tag) is listed as 2; in series [3] (Nach 3 Tagen), 4; in series [3] (Nach 7 Tagen), 4; in series [3] (Nach 14 Tagen), 4; in series [3] (Nach 28 Tagen), 6.
